PubChem BioAssay AID1224830 | NIAID, 2016
This is one part, drawn at random, of about 18,000 reagents. Over the whole deposit, about 2,900 (16%) got an active call. 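Calls are made per well; low scores hint the gene aids the LPS response, high scores that it dampens it.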 A number with no mark means an inactive call. Repeated entries: four replicate wells of each siRNA pool.

- Screen: 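Regulators of TLR4 signalling towards TNF-alpha in macrophage-like cells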 (primary screen)
- System: human THP-1 monocytic leukaemia cells, TNF dual-luciferase reporter clone, PMA-differentiated to macrophage-like cells
- Knock-down reagent: siRNA pool against human genes, 50 nM
- Time to read-out: LPS for 4 h, given about 3 days after siRNA transfection
- Conditions: bacterial LPS (TLR4 ligand), 10 ng/ml
- Measured: 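Ratio of firefly to renilla light, scaled to the plate median and expressed as a robust z-score per replicate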
- Direction: TNF reporter robust z-score: higher = stronger TNF reporter response to LPS
- Rule for the call: 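Each well counts as active if its z-score is over 2.8 or under -1.5; controls are left without a call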

With SLC12A3 (GeneID 6559), what was measured?
TNF reporter robust z-score: 0.04

For SLC12A3 (GeneID 6559), what was measured?
TNF reporter robust z-score: 0.23

For SLC12A3 (GeneID 6559), how do the results read?
TNF reporter robust z-score: -0.16

What did the screen give for SLC12A3 (GeneID 6559)?
TNF reporter robust z-score: 0.68

For OR2S2 (GeneID 56656), what does the deposit list?
TNF reporter robust z-score: 0.33

Which result is listed for OR2S2 (GeneID 56656)?
TNF reporter robust z-score: 1.46

For OR2S2 (GeneID 56656), how do the results read?
TNF reporter robust z-score: 0.09

With OR2S2 (GeneID 56656), how do the results read?
TNF reporter robust z-score: 1.26

With CKAP2 (GeneID 26586), what was measured?
TNF reporter robust z-score: 0.21

Which result is listed for CKAP2 (GeneID 26586)?
TNF reporter robust z-score: 1.6

What did the screen give for CKAP2 (GeneID 26586)?
TNF reporter robust z-score: 0.55

With CKAP2 (GeneID 26586), what does the deposit list?
TNF reporter robust z-score: -0.3

For HNRNPH3 (GeneID 3189), how do the results read?
TNF reporter robust z-score: 0.04

With HNRNPH3 (GeneID 3189), how do the results read?
TNF reporter robust z-score: 1.97

For HNRNPH3 (GeneID 3189), what was measured?
TNF reporter robust z-score: 2.32

What is on record for HNRNPH3 (GeneID 3189)?
TNF reporter robust z-score: 2.83 (active)

What did the screen give for CLDN16 (GeneID 10686)?
TNF reporter robust z-score: -0.19

For CLDN16 (GeneID 10686), what does the deposit list?
TNF reporter robust z-score: -0.55

Which result is listed for CLDN16 (GeneID 10686)?
TNF reporter robust z-score: -0.6

What did the screen give for CLDN16 (GeneID 10686)?
TNF reporter robust z-score: -0.41

For CALB1 (GeneID 793), how do the results read?
TNF reporter robust z-score: 0.17

What did the screen give for CALB1 (GeneID 793)?
TNF reporter robust z-score: 0.93

How did the screen score CALB1 (GeneID 793)?
TNF reporter robust z-score: -0.53

What did the screen give for CALB1 (GeneID 793)?
TNF reporter robust z-score: -0.26

With CLPB (GeneID 81570), what does the deposit list?
TNF reporter robust z-score: -0.51

How did the screen score CLPB (GeneID 81570)?
TNF reporter robust z-score: -0.94

What did the screen give for CLPB (GeneID 81570)?
TNF reporter robust z-score: -1.21

What did the screen give for CLPB (GeneID 81570)?
TNF reporter robust z-score: -0.47

4 entries already listed, arranged by “TNF reporter robust z-score”, low to high.
CLPB (GeneID 81570) | TNF reporter robust z-score = -0.94
CALB1 (GeneID 793) | TNF reporter robust z-score = -0.53
CLPB (GeneID 81570) | TNF reporter robust z-score = -0.51
CALB1 (GeneID 793) | TNF reporter robust z-score = -0.26

Additional entries follow:
What is on record for KCNJ5-AS1 (GeneID 219833)?
TNF reporter robust z-score: -0.04

Which result is listed for KCNJ5-AS1 (GeneID 219833)?
TNF reporter robust z-score: -0.87

For KCNJ5-AS1 (GeneID 219833), what was measured?
TNF reporter robust z-score: -0.16

With KCNJ5-AS1 (GeneID 219833), what was measured?
TNF reporter robust z-score: -0.69

For AFG2B (GeneID 79029), what was measured?
TNF reporter robust z-score: -0.33

For AFG2B (GeneID 79029), how do the results read?
TNF reporter robust z-score: -0.32

With AFG2B (GeneID 79029), what was measured?
TNF reporter robust z-score: 0.37

With AFG2B (GeneID 79029), how do the results read?
TNF reporter robust z-score: 0.34

Which result is listed for SUN2 (GeneID 25777)?
TNF reporter robust z-score: -1.15

With SUN2 (GeneID 25777), what was measured?
TNF reporter robust z-score: -0.83

Which result is listed for SUN2 (GeneID 25777)?
TNF reporter robust z-score: -0.97

With AFM (GeneID 173), what does the deposit list?
TNF reporter robust z-score: -0.35

With AFM (GeneID 173), what does the deposit list?
TNF reporter robust z-score: -0.1

How did the screen score AFM (GeneID 173)?
TNF reporter robust z-score: -0.98

With AFM (GeneID 173), what does the deposit list?
TNF reporter robust z-score: -0.47

With PPP1R16B (GeneID 26051), what does the deposit list?
TNF reporter robust z-score: -0.74

With PPP1R16B (GeneID 26051), what was measured?
TNF reporter robust z-score: -0.3

For PPP1R16B (GeneID 26051), what was measured?
TNF reporter robust z-score: 0.26

With PPP1R16B (GeneID 26051), how do the results read?
TNF reporter robust z-score: -0.08
